According to PMC5998066:
Results are given in words; binding and its absence hold for the method and conditions named. In cells and extracts the contact can be indirect. Some results given as binding are weak or reduced against the parent protein; the word gives no strength. For some assays here: Sequences can lack the tags named with a protein.

By UniProt entry, the sequences of proteins in these tests, tags left out.
UniProt Q9UNN5: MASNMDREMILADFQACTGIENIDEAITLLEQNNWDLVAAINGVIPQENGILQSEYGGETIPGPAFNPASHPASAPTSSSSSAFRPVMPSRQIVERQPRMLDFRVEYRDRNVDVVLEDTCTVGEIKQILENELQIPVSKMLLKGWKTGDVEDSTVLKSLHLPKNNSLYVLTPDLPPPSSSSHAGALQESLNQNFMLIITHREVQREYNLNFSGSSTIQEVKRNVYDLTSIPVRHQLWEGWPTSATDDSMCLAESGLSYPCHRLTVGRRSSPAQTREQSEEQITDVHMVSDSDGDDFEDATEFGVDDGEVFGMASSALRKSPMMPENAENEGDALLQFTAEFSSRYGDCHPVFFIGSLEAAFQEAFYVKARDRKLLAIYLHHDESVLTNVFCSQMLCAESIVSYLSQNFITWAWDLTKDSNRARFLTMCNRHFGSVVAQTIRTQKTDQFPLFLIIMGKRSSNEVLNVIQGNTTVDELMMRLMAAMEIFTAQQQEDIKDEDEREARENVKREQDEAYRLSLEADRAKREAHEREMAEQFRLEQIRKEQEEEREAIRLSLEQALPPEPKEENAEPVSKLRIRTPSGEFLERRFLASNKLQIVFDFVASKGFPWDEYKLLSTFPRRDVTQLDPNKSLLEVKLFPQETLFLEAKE
UniProt Q86WV6: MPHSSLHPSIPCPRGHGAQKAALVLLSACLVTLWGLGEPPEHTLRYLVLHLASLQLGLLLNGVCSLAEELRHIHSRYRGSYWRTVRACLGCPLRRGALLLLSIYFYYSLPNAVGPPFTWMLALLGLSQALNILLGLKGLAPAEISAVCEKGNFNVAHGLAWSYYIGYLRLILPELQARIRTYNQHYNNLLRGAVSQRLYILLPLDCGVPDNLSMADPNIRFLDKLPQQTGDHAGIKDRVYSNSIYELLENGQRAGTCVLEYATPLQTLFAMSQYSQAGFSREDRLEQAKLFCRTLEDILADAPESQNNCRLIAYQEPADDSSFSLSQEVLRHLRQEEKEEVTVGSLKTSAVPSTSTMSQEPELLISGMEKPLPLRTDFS

Key:
[1] = target: FLAG-UBXN3A (UniProt Q9UNN5); experiment: co-IP; HEK293T cells co-transfected with FLAG-UBXNs and HA-STING; whole-cell extracts in 150 mM NaCl, 50 mM Tris pH 7.5, 1 mM EDTA, 0.5% NP40, 10% glycerol; anti-FLAG magnetic beads 2 h at 4 °C; immunoblot anti-HA and anti-FLAG
[2] = target: T1, FLAG-UBXN3B (human) (UniProt Q96CS3); experiment: as above
T1 sequence: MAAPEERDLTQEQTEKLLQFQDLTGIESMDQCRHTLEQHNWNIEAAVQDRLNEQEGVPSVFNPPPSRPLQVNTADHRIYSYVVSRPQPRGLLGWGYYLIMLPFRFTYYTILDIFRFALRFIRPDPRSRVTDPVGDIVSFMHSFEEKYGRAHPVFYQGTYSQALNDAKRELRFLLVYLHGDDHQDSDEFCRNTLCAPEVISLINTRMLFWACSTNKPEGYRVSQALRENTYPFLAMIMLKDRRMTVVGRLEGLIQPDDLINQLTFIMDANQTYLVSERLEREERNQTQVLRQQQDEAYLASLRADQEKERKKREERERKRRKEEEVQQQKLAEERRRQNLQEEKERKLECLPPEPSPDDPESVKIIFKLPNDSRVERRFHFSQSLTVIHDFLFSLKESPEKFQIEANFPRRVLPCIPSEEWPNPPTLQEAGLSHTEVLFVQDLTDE

binding [1]: no binding
binding [2]: binds
Substance: HA-STING (from UniProt Q86WV6 1-379)
